Reference: PubChem BioAssay AID1508597 (Cure First, 2020)
Test: 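Genes whose silencing sensitises or protects ovarian cancer cells against rucaparib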 (primary screen). System: human ovarian carcinoma lines grown from tumours: OCI-P5x (papillary serous) and OCI-C5x (clear cell). Knock-down reagent: siRNA pool against human genes, 1.25 pmol siRNA per well. Timing: 72 h or 96 h, depending on the cell culture. Treatment: rucaparib 20 µM (about IC30) or vehicle, present until read-out. Measurement: 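ATP luminescence measured at 72 or 96 h according to the culture, then normalised and expressed as percent viability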. Reading the numbers: viability, normalised: higher = more viable cells remaining. Call rule: 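Active when normalised viability falls below 80 percent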. Meaning of the calls: active = viability under 80%; inactive = viability 80% or more.
The deposit covers about 2,100 reagents; this is a part drawn at random. 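Calls flag viability under 80% in either arm, not effects specific to rucaparib; the reference for percent is not stated.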 Entries without a mark were called inactive. Some reagents were tested in more than one well and are listed for each. No sequences are given here. The record does not give: the 100% reference.

For TCF3, rucaparib or vehicle Rucaparib, cell line OCI-C5x (clear cell), technical replicate 1, the values are viability, normalised (%) = 48.3 (active). For TCF3, rucaparib or vehicle Rucaparib, cell line OCI-C5x (clear cell), technical replicate 2, the values are viability, normalised (%) = 49.6 (active). For TCF3, rucaparib or vehicle Rucaparib, cell line OCI-C5x (clear cell), technical replicate 3, the entry reads viability, normalised (%) = 32.9 (active). TCF3, rucaparib or vehicle Rucaparib, cell line OCI-P5x (serous), technical replicate 1 gave viability, normalised (%) = 58.7 (active). With TCF3, rucaparib or vehicle Rucaparib, cell line OCI-P5x (serous), technical replicate 2 the deposit lists viability, normalised (%) = 64.3 (active). TCF3, rucaparib or vehicle Rucaparib, cell line OCI-P5x (serous), technical replicate 3 scored viability, normalised (%) = 65.1 (active).

With TCF3, rucaparib or vehicle Vehicle, cell line OCI-C5x (clear cell), technical replicate 1, the entry reads viability, normalised (%) = 40.1 (active). TCF3, rucaparib or vehicle Vehicle, cell line OCI-C5x (clear cell), technical replicate 2 scored viability, normalised (%) = 47.1 (active). TCF3, rucaparib or vehicle Vehicle, cell line OCI-C5x (clear cell), technical replicate 3 gave viability, normalised (%) = 47.4 (active). TCF3, rucaparib or vehicle Vehicle, cell line OCI-P5x (serous), technical replicate 1 scored viability, normalised (%) = 57.3 (active). For TCF3, rucaparib or vehicle Vehicle, cell line OCI-P5x (serous), technical replicate 2 the deposit lists viability, normalised (%) = 75.9 (active). TCF3, rucaparib or vehicle Vehicle, cell line OCI-P5x (serous), technical replicate 3 gave viability, normalised (%) = 73.4 (active).

With BABAM1, rucaparib or vehicle Rucaparib, cell line OCI-C5x (clear cell), technical replicate 1, the entry reads viability, normalised (%) = 71.1 (active). BABAM1, rucaparib or vehicle Rucaparib, cell line OCI-C5x (clear cell), technical replicate 1 scored viability, normalised (%) = 61 (active). With BABAM1, rucaparib or vehicle Rucaparib, cell line OCI-C5x (clear cell), technical replicate 2, the entry reads viability, normalised (%) = 80.9. With BABAM1, rucaparib or vehicle Rucaparib, cell line OCI-C5x (clear cell), technical replicate 2 the deposit lists viability, normalised (%) = 81.5. BABAM1, rucaparib or vehicle Rucaparib, cell line OCI-C5x (clear cell), technical replicate 3 showed viability, normalised (%) = 60.9 (active). BABAM1, rucaparib or vehicle Rucaparib, cell line OCI-C5x (clear cell), technical replicate 3 scored viability, normalised (%) = 54.7 (active).

For BABAM1, rucaparib or vehicle Rucaparib, cell line OCI-P5x (serous), technical replicate 1, the entry reads viability, normalised (%) = 66.5 (active). BABAM1, rucaparib or vehicle Rucaparib, cell line OCI-P5x (serous), technical replicate 1 showed viability, normalised (%) = 89.6. BABAM1, rucaparib or vehicle Rucaparib, cell line OCI-P5x (serous), technical replicate 2 scored viability, normalised (%) = 75.6 (active). BABAM1, rucaparib or vehicle Rucaparib, cell line OCI-P5x (serous), technical replicate 2 scored viability, normalised (%) = 77.1 (active). For BABAM1, rucaparib or vehicle Rucaparib, cell line OCI-P5x (serous), technical replicate 3 the deposit lists viability, normalised (%) = 92.6. With BABAM1, rucaparib or vehicle Rucaparib, cell line OCI-P5x (serous), technical replicate 3 the deposit lists viability, normalised (%) = 80.9.

BABAM1, rucaparib or vehicle Vehicle, cell line OCI-C5x (clear cell), technical replicate 1 gave viability, normalised (%) = 68.4 (active). BABAM1, rucaparib or vehicle Vehicle, cell line OCI-C5x (clear cell), technical replicate 1 scored viability, normalised (%) = 39.1 (active). BABAM1, rucaparib or vehicle Vehicle, cell line OCI-C5x (clear cell), technical replicate 2 scored viability, normalised (%) = 63.4 (active). BABAM1, rucaparib or vehicle Vehicle, cell line OCI-C5x (clear cell), technical replicate 2 gave viability, normalised (%) = 62.5 (active). For BABAM1, rucaparib or vehicle Vehicle, cell line OCI-C5x (clear cell), technical replicate 3 the deposit lists viability, normalised (%) = 61.8 (active). For BABAM1, rucaparib or vehicle Vehicle, cell line OCI-C5x (clear cell), technical replicate 3, the entry reads viability, normalised (%) = 65.6 (active).

BABAM1, rucaparib or vehicle Vehicle, cell line OCI-P5x (serous), technical replicate 1 scored viability, normalised (%) = 87.8. BABAM1, rucaparib or vehicle Vehicle, cell line OCI-P5x (serous), technical replicate 1 showed viability, normalised (%) = 66.9 (active). BABAM1, rucaparib or vehicle Vehicle, cell line OCI-P5x (serous), technical replicate 2 scored viability, normalised (%) = 77.1 (active). For BABAM1, rucaparib or vehicle Vehicle, cell line OCI-P5x (serous), technical replicate 2, the values are viability, normalised (%) = 58.1 (active). For BABAM1, rucaparib or vehicle Vehicle, cell line OCI-P5x (serous), technical replicate 3, the entry reads viability, normalised (%) = 93.9. For BABAM1, rucaparib or vehicle Vehicle, cell line OCI-P5x (serous), technical replicate 3 the deposit lists viability, normalised (%) = 63.5 (active).

RAG1, rucaparib or vehicle Rucaparib, cell line OCI-C5x (clear cell), technical replicate 1 gave viability, normalised (%) = 56.5 (active). RAG1, rucaparib or vehicle Rucaparib, cell line OCI-C5x (clear cell), technical replicate 2 showed viability, normalised (%) = 50.9 (active). RAG1, rucaparib or vehicle Rucaparib, cell line OCI-C5x (clear cell), technical replicate 3 gave viability, normalised (%) = 32.4 (active). RAG1, rucaparib or vehicle Rucaparib, cell line OCI-P5x (serous), technical replicate 1 gave viability, normalised (%) = 46.1 (active). With RAG1, rucaparib or vehicle Rucaparib, cell line OCI-P5x (serous), technical replicate 2, the values are viability, normalised (%) = 57.3 (active). With RAG1, rucaparib or vehicle Rucaparib, cell line OCI-P5x (serous), technical replicate 3, the entry reads viability, normalised (%) = 58 (active).

For RAG1, rucaparib or vehicle Vehicle, cell line OCI-C5x (clear cell), technical replicate 1 the deposit lists viability, normalised (%) = 32.8 (active). With RAG1, rucaparib or vehicle Vehicle, cell line OCI-C5x (clear cell), technical replicate 2, the entry reads viability, normalised (%) = 28.1 (active). RAG1, rucaparib or vehicle Vehicle, cell line OCI-C5x (clear cell), technical replicate 3 gave viability, normalised (%) = 45.2 (active). With RAG1, rucaparib or vehicle Vehicle, cell line OCI-P5x (serous), technical replicate 1, the values are viability, normalised (%) = 61.8 (active). With RAG1, rucaparib or vehicle Vehicle, cell line OCI-P5x (serous), technical replicate 2 the deposit lists viability, normalised (%) = 59.3 (active). RAG1, rucaparib or vehicle Vehicle, cell line OCI-P5x (serous), technical replicate 3 showed viability, normalised (%) = 72.3 (active).
